Sequences of proteins named here, by UniProt entry; tags and fusion partners are left off. Residues count along the entry.
UniProt P10415: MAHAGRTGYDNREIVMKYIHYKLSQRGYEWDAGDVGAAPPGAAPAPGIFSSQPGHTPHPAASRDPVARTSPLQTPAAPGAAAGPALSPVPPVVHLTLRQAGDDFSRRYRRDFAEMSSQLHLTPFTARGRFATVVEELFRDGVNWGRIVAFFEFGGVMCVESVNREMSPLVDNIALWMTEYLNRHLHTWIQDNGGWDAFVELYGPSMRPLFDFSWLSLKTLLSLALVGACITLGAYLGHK
UniProt Q9UNE7: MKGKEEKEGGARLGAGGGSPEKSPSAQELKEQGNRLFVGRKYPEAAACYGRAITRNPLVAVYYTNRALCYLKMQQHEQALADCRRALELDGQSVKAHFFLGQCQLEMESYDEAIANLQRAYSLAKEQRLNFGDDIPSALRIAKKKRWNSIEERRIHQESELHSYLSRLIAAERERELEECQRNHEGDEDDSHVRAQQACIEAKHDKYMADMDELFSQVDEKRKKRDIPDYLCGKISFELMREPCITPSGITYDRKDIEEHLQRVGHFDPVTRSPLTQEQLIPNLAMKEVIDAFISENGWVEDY
UniProt P27824, residues 21-592: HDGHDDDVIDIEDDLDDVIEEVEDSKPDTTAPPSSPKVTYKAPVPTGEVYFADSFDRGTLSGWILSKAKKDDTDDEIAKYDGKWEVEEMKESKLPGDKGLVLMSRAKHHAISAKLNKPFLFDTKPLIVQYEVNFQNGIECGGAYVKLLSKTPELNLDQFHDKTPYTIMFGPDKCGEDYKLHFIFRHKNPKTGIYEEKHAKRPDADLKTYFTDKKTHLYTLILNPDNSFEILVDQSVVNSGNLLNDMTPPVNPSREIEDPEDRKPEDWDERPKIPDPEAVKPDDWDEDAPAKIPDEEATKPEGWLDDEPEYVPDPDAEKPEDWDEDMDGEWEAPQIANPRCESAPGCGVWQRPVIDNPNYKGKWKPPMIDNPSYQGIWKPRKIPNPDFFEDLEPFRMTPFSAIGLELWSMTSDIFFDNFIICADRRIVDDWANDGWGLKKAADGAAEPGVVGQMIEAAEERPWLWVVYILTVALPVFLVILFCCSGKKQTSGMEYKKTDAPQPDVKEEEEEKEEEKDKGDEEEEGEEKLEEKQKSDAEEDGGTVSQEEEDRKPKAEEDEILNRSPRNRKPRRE
UniProt P11142: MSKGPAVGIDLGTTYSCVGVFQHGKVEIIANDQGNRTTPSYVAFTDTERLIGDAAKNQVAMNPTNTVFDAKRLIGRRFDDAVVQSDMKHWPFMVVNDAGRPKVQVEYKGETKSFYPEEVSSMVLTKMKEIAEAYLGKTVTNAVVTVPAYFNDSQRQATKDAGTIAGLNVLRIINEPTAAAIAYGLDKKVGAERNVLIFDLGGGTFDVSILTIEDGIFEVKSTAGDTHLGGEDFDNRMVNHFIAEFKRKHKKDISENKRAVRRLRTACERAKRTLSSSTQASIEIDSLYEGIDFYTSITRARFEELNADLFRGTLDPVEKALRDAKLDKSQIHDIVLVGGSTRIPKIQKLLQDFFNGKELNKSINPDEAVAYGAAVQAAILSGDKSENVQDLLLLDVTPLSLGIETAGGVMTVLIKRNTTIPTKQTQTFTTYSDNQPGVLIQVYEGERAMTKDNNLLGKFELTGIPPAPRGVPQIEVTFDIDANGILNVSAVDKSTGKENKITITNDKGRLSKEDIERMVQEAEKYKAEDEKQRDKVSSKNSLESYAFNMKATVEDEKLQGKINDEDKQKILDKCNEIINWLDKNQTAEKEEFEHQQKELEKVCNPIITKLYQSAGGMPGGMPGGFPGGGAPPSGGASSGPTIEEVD
UniProt P0DMV8: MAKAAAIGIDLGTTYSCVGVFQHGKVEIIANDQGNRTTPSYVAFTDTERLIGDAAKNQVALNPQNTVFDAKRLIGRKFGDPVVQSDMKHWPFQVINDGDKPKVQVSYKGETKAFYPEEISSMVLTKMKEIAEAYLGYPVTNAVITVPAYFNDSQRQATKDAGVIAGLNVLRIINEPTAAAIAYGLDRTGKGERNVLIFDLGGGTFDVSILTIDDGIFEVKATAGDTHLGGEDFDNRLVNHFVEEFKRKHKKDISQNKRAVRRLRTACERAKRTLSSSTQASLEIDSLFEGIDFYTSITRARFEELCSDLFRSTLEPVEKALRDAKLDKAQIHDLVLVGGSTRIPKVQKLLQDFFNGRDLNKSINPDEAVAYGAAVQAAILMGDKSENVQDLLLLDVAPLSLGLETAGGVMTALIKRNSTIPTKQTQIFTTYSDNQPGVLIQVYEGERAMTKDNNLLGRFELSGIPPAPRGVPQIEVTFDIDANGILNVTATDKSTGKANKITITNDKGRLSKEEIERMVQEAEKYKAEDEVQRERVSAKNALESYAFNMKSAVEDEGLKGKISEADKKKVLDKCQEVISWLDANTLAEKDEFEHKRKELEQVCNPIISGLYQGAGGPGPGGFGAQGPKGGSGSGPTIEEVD
UniProt P54727: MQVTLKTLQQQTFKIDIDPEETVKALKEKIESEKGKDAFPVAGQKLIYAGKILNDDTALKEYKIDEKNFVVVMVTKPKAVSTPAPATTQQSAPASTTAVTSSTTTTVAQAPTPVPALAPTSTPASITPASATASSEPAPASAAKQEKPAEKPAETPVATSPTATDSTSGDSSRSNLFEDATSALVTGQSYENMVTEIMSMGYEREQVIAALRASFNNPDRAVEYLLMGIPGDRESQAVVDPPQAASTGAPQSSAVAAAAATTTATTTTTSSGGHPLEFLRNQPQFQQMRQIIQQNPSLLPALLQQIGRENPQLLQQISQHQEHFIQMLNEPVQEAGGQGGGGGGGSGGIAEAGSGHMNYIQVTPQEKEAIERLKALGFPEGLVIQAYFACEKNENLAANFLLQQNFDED
UniProt Q9UMX0: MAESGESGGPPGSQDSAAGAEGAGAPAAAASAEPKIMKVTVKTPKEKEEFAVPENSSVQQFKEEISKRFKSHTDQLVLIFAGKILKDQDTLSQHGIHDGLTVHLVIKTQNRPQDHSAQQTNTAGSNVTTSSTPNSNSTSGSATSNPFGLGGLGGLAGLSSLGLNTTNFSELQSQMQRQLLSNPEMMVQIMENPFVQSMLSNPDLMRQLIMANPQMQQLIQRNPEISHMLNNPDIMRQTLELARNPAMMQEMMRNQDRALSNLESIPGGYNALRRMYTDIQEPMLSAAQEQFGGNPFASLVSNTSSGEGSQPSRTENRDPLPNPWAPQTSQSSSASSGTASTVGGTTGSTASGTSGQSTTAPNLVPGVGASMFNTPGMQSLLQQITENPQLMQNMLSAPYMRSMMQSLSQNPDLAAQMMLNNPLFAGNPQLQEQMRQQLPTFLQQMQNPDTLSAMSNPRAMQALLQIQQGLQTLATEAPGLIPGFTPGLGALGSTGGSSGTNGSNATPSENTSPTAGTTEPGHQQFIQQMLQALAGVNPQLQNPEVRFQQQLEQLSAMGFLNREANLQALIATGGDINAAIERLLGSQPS

In publication PMC8384158:

Experiments:
TAP–Bag-1L (human) [1] = target: T1, TAP–Bag-1L (human) (UniProt Q99933); assay: affinity purification with mass spectrometry; TAP-tagged Bag-1 isoform or Bag-1S mutant in lysate of transfected MCF-7 cells, captured on IgG Sepharose overnight at 4°C, released with AcTEV protease; in-solution trypsin digest, LC-MS/MS, label-free; enrichment >1.2-fold relative to TAP-only mock (mutants relative to wild-type TAP–Bag-1S)
T1 sequence: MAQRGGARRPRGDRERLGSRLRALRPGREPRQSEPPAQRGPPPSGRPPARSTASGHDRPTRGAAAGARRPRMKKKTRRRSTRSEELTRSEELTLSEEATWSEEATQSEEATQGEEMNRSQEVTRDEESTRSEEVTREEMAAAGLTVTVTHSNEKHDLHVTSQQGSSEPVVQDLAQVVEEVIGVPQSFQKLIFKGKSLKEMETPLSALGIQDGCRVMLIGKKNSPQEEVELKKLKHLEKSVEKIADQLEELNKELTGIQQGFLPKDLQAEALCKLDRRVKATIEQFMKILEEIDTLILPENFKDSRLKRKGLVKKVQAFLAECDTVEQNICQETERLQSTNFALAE

TAP–Bag-1S (human) [2] = target: T2, TAP–Bag-1S (human) (UniProt Q99933); assay: as above
T2 sequence: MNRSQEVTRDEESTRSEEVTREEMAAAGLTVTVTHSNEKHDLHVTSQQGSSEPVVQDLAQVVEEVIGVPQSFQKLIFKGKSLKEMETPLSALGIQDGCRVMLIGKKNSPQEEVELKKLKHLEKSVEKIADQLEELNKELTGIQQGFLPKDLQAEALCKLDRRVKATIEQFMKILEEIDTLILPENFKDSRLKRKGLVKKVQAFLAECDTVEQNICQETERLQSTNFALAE

TAP–Bag-1L (human) [3] = target: T1, TAP–Bag-1L (human); assay: affinity purification with mass spectrometry + native gel or EMSA; TAP–Bag-1 isoform complexes from transfected cells (extraction with 5% digitonin) affinity-purified, run on BN-PAGE; bands cut, in-gel trypsin digest, LC-MS/MS
TAP–Bag-1S (human) [4] = target: T2, TAP–Bag-1S (human); assay: as above
TAP–Bag-1S R193D (human) = target: T3, TAP–Bag-1S R193D (human) (UniProt Q99933); assay: affinity purification with mass spectrometry; TAP-tagged Bag-1 isoform or Bag-1S mutant in lysate of transfected MCF-7 cells, captured on IgG Sepharose overnight at 4°C, released with AcTEV protease; in-solution trypsin digest, LC-MS/MS, label-free; enrichment >1.2-fold relative to TAP-only mock (mutants relative to wild-type TAP–Bag-1S)
T3 sequence: T2 sequence with R193D

TAP–Bag-1S R161D (human) = target: T4, TAP–Bag-1S R161D (human) (UniProt Q99933); assay: as above
T4 sequence: T2 sequence with R161D

TAP–Bag-1S R162E (human) = target: T5, TAP–Bag-1S R162E (human) (UniProt Q99933); assay: as above
T5 sequence: T2 sequence with R162E

| Substance | binding (TAP–Bag-1L (human) [1]) | binding (TAP–Bag-1S (human) [2]) | binding (TAP–Bag-1L (human) [3]) | binding (TAP–Bag-1S (human) [4]) | other results |
| --- | --- | --- | --- | --- | --- |
| Akt (human (endogenous in MCF-7)) | no binding | no binding | – | – | – |
| Bcl-2 (from UniProt P10415 1-239) | no binding | no binding | – | – | – |
| CHIP (from UniProt Q9UNE7 1-303) | no binding | – | – | – | – |
| Calnexin (from UniProt P27824 21-592) | – | – | binds | binds | – |
| Calreticulin (from UniProt P27797 18-417) | – | – | binds | binds | – |
| Hsc70 (from UniProt P11142 1-646) | binds | binds | – | – | – |
| Hsp70 (from UniProt P0DMV8 1-641) | binds | binds | – | – | binding (TAP–Bag-1S R193D (human)): binds |
| Rad23B (from UniProt P54727 1-409) | – | – | binds | binds | – |
| VCP/p97 (from UniProt P55072 1-806) | – | binds | binds | binds | binding (TAP–Bag-1S R161D (human)): binds; binding (TAP–Bag-1S R162E (human)): binds; binding (TAP–Bag-1S R193D (human)): binds |
| ribophorin | – | – | binds | binds | – |
| ubiquilin-1 (from UniProt Q9UMX0 1-589) | – | – | binds | binds | – |

Substitutions are numbered along the chain they refer to. Results are given in words; binding and its absence hold for the method and conditions named. In cells and extracts the contact can be indirect. Here binding means that the protein was enriched with, or labelled near, the bait; the list need not be complete. For some assays here: No binding means not detected with the bait.
